From publication doi:10.1101/2024.05.26.595847 come the findings set out here.

For at least one entry, the source does not settle the construct or the ends of the probe. No signal at the amounts used counts as a negative.

This data set has as its system GST_ZOS5-09. Put plainly: EMSA. The conditions noted are these: poly dI.dC; CACT to GTTC in each copy.

For “TGTGCAAGTTCAGCCGGATGTGCAAGTTCAGCCGGA (double strand) [2X mZF_BS]”, the binding result was “no binding”.
